The values that follow come from paper PMC10250397.

By UniProt entry, the sequences of proteins in these tests, tags left out. Where a name states a change or a piece, a line headed by the entry shows the natural chain unless it says otherwise. Chains listed by the source or under a name are the forms on record and can include a tag or linker.
UniProt P16615: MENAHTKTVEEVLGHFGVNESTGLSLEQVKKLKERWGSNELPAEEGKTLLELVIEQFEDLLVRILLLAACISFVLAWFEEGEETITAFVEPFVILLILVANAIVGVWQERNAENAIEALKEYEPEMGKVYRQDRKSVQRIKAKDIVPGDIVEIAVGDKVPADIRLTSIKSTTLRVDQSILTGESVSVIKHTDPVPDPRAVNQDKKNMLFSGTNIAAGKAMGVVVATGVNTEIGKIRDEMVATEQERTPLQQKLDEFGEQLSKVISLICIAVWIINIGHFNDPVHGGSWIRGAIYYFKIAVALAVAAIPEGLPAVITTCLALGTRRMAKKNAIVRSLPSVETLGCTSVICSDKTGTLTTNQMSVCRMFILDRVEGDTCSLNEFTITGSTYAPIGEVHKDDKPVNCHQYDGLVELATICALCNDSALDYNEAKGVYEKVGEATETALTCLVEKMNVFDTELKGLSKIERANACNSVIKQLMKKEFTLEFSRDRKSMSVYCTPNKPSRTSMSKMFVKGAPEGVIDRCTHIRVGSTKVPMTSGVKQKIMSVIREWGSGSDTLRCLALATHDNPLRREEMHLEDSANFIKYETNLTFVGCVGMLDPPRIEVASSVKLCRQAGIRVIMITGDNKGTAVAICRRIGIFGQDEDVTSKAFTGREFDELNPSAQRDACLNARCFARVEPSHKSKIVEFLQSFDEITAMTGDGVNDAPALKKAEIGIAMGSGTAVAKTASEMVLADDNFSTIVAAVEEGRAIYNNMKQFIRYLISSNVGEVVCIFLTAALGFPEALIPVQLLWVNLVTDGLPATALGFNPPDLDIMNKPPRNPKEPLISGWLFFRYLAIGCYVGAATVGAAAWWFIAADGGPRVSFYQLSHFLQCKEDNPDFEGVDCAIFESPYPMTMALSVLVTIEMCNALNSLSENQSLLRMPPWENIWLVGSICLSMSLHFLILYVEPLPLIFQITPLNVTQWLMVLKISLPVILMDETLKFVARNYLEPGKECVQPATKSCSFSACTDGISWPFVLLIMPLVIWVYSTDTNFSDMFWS
human SERCA2a S663A phosphoresistant mutant, AAV9 rescue in cardiac SERCA2-KD mice (P16615, form named): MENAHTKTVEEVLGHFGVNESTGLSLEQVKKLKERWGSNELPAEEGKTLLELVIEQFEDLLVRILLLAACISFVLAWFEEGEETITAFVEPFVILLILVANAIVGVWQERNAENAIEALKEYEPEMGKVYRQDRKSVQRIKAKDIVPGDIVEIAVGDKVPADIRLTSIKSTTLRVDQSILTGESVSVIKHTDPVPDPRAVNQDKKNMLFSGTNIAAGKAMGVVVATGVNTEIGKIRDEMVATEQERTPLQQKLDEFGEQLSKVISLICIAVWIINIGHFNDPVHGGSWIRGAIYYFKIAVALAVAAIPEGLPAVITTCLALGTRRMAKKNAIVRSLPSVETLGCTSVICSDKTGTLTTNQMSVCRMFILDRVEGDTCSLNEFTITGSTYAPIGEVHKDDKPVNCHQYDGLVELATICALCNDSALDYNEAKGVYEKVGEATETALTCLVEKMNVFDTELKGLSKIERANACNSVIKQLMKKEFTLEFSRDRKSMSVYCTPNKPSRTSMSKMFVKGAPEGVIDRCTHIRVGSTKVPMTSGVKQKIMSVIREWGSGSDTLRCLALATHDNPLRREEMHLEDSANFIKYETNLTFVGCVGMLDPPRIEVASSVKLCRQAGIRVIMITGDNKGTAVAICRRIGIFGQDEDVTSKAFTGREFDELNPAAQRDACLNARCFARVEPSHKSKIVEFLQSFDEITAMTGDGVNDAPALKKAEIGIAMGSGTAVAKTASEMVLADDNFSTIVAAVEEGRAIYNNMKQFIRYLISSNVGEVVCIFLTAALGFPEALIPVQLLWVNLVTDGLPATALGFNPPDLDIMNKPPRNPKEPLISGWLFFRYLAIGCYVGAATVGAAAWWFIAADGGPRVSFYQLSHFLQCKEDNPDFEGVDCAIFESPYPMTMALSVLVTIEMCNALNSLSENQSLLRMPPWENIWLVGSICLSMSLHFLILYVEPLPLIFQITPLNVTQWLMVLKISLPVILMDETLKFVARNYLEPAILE
human SERCA2a S663E phosphomimetic mutant, AAV9 rescue in cardiac SERCA2-KD mice (P16615, form named): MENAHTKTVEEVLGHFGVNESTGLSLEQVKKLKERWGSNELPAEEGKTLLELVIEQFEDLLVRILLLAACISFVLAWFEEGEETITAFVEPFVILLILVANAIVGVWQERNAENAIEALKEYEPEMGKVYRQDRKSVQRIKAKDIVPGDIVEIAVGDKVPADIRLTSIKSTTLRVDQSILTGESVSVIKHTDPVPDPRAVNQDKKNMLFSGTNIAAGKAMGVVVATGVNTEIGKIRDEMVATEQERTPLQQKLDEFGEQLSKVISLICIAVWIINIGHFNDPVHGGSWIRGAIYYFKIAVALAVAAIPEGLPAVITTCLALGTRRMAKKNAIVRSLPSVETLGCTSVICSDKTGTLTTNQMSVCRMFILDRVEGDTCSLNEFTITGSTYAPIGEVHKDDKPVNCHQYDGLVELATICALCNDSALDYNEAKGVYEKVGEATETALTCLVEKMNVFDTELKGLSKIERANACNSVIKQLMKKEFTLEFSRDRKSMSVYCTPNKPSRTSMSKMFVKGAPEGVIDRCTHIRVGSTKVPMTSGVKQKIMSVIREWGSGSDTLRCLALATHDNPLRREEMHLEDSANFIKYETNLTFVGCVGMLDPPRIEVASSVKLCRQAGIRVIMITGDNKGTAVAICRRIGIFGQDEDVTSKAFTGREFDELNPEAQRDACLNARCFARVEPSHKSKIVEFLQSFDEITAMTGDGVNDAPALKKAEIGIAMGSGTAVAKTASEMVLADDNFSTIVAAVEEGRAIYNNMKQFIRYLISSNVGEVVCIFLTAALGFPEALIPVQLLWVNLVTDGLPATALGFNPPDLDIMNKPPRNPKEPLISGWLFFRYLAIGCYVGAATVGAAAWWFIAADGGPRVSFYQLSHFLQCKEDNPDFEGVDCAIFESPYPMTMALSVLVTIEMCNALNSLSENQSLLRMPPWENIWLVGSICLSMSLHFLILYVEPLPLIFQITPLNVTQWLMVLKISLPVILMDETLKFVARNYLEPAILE
human SERCA2a wild type, AAV9 rescue in cardiac SERCA2-KD mice (P16615, form named): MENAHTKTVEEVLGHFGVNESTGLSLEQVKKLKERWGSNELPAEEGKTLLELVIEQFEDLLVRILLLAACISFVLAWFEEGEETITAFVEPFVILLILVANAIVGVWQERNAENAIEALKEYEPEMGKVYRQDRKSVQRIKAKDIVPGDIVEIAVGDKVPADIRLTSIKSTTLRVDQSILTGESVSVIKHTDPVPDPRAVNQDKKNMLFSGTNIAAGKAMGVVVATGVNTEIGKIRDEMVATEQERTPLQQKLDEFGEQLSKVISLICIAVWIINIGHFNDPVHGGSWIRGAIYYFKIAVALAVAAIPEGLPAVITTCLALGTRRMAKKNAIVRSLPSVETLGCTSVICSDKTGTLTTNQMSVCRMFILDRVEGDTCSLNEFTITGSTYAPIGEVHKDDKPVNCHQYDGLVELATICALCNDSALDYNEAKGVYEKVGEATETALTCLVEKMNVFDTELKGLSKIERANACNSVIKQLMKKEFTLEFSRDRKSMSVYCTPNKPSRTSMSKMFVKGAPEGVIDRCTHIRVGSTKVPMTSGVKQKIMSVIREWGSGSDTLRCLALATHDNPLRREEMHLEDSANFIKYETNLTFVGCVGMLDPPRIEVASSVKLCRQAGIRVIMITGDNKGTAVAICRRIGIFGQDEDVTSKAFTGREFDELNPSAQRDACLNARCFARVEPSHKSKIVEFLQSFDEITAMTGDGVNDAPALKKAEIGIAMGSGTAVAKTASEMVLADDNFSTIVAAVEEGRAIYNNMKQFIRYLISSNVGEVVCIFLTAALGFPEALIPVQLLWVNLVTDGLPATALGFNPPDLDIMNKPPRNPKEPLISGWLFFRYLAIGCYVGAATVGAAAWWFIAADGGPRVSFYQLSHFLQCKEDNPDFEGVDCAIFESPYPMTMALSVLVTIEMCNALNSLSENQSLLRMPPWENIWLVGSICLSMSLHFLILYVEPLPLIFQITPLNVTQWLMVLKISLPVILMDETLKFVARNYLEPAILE
UniProt P49841: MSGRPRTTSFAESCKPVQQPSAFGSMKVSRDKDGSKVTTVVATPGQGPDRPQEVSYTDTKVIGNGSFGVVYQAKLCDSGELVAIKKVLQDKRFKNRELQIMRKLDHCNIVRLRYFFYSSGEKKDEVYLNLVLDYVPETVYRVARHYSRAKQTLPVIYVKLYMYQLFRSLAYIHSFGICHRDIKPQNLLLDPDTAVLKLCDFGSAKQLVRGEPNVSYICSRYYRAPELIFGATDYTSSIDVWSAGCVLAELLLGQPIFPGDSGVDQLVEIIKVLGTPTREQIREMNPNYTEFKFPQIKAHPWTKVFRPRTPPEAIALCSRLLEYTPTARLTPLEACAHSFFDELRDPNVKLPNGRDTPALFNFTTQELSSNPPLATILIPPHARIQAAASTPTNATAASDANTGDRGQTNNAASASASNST

For test [1], the target named is sarcoplasmic/endoplasmic reticulum Ca2+ ATPase (SERCA2), endogenous in HEK293-T cells (human (endogenous in HEK293-T)) (UniProt P16615). The test is described as follows: co-IP; lysates of HEK293-T cells, basal and after 1 h hypoxia followed by 30 min reoxygenation; 200 µg lysate precipitated with anti-SERCA2 antibody and Protein G magnetic beads, TBS with 1 mM EDTA and 1.0% Triton X-100, overnight at 4 °C; immunoblot. (In general: In western blotting, separated proteins are transferred to a membrane and probed.)

Test [2] concerns the target human SERCA2a S663A phosphoresistant mutant, AAV9 rescue in cardiac SERCA2-KD mice (human) (UniProt P16615). The test is described as follows: co-IP; lysates of the cardiac area at risk after in vivo ischemia-reperfusion of SERCA2-KD mice rescued with SERCA2 WT, S663A or S663E; precipitated with anti-SERCA2 antibody, TBS with 1 mM EDTA and 1.0% Triton X-100, 4 °C; immunoblot for PLN, quantified.

In test [3] the target is human SERCA2a S663E phosphomimetic mutant, AAV9 rescue in cardiac SERCA2-KD mice (human) (UniProt P16615). The description is as above.
Test [4] has as its target human SERCA2a wild type, AAV9 rescue in cardiac SERCA2-KD mice (human) (UniProt P16615). The test is described as above.

Results are given in words; binding and its absence hold for the method and conditions named. Binding seen in cells or lysates may run through a third protein. Some entries that bind do so weakly or less than the wild type.

On to “glycogen synthase kinase 3 beta (GSK3β), endogenous in HEK293-T cells (from UniProt P49841 1-420) (enzyme)”, for which, in test [1], the binding entry is “binds”.

B1: phospholamban (PLN), endogenous in mouse heart (protein, UniProt P61014 1-52)
chain: MEKVQYLTRSAIRRASTIEMPQQARQNLQNLFINFCLILICLLLICIIVMLL
B1: the binding result in test [2], in test [3] and in test [4] was “binds” each time.
